Laboratory results: PubChem BioAssay AID624297 (National Center for Advancing Translational Sciences (NCATS), 2012)
Where “and” joins values, the source holds several entries; their conditions need not be identical. Identical values can stand only once. Hit rate of the full screen: of about 340,000 compounds, about 6,200 (1.8%) were called active. This list was built around the results that the source calls inconclusive (neither active nor inactive); the mix of calls is not that of the screen. Calls come from the whole dose curve; as a rule, active = well fitted activation curve with a large enough effect; inconclusive = small, poorly fitted or top-dose-only effect; inactive = no such curve, though single readings can be large or run the other way. Potencies beside an inconclusive call are fits to weak or partial responses and may not hold up.

test: A quantitative high throughput screen for small molecules that induce DNA re-replication in SW480 colon adenocarcinoma cells.; note: nearly all actives have a fitted effect of over 55% in size; for re-replication activation: % of control where 0% means no effect; conditions: Hoechst DNA content imaging, 48 h; re-replication activation: at 46.1 µM (top of the series) unless noted
Method in brief: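 First, 250 cells per well were seeded. Next, compound or vehicle (23 nL) was pinned in, plates sat 48 hr at 37 C. Finally Hoechst was added for 40 min before fluorescence scanning.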
Potency is the fitted concentration of half-maximal effect.

**Q.** With `O=C(NCC1CCCCC1)c1cc2ccccc2cc1O` as the molecule, how does the Potency read?
**A.** The Potency was inconclusive: 23.1 µM [activator, single point].

**Q.** For `O=C(Nc1cc(S(=O)(=O)Nc2ccc(Cl)cc2)ccc1N1CCCCC1)c1ccc(F)cc1Cl`, which Potency is on record?
**A.** Its Potency is inconclusive: 20.6 µM [activator, single point].

**Q.** For `Cn1nccc1NC(=O)Nc1ccccc1`, which “re-replication activation” value is on record?
**A.** The value was inactive: -12.7%.

**Q.** Which “re-replication activation” value does the source give for `CCN(CC)C(=O)c1cnn(-c2ccccc2)c1NC(=O)c1ccccc1F` here?
**A.** The value was inactive: -2.16%.

**Q.** For `CCN(CC)Cc1c(O)ccc2c(=O)c(Oc3ccccc3OC)coc12`, which Potency is on record?
**A.** Its Potency is inconclusive: 5.17 µM [activator, partial curve, poor fit].

**Q.** Which Potency does the source give for `Cc1ccc(-n2nnnc2Sc2nc([N+](=O)[O-])nn2C)c(C)c1` here?
**A.** Its Potency is inconclusive: 29.1 µM [activator, single point].

**Q.** Which “re-replication activation” value does the source give for `Cn1c(=O)n(C)c2cc([N+](=O)[O-])c(N3CCN(C(=O)c4ccc(F)cc4)CC3)cc21` here?
**A.** Its value is inactive: -6.26%.

**Q.** With `COC(=O)C1CC2=C(CCCC2=O)N(c2ccccc2)C1=O` (centres undefined) as the molecule, how does the Potency read?
**A.** The Potency was inconclusive: 0.013 µM [activator, full curve, poor fit].

**Q.** For `CC(C)c1onc(C(=O)Nc2cccnc2Cl)c1[N+](=O)[O-]`, which Potency is on record?
**A.** The Potency was inconclusive: 29.1 µM [activator, single point].

**Q.** With `COc1ccc(Nc2nc(-c3c(C)nc4ncccn34)cs2)cc1` as the molecule, how does the Potency read?
**A.** The Potency was inconclusive: 0.0046 µM [activator, full curve, poor fit].

**Q.** With `Cc1ccccc1S(=O)(=O)NNC(=O)C(=O)NNc1ccccn1` as the molecule, how does the re-replication activation read?
**A.** The re-replication activation was inactive: -0.433% [at 9.22 µM].

**Q.** With `Cc1cn([C@H]2C[C@H](N=[N+]=[N-])[C@@H](CO)O2)c(=O)[nH]c1=O` as the molecule, how does the Potency read?
**A.** The Potency was inconclusive: 29.9 µM [activator, single point] and inconclusive: 3.66 µM [activator, single point].

**Q.** Which Potency does the source give for `COC(=O)c1cccc(NC(=O)CN2C(=O)C3CCCCC3C2=O)c1` (centres undefined) here?
**A.** Its Potency is inconclusive: 29.1 µM [activator, partial curve, poor fit].

**Q.** With `COC(=O)[C@@H](N)CS` as the molecule, how does the Potency read?
**A.** Its Potency is inconclusive: 13.3 µM [activator, single point].

**Q.** Which Potency does the source give for `N#Cc1c(N)nc(SCC(=O)NC2CCCCC2)c(C#N)c1-c1ccc(Cl)cc1` here?
**A.** Its Potency is inconclusive: 20.6 µM [activator, single point].

**Q.** For `COc1ccc(C2C(C(=O)N3CCCCC3)c3ccccc3C(=O)N2C)cc1` (centres undefined), which Potency is on record?
**A.** The Potency was inconclusive: 29.1 µM [activator, single point].

**Q.** For `CC(c1ccc(F)cc1)n1c(-c2ccc3ccccc3n2)n[nH]c1=S` (centres undefined), which “re-replication activation” value is on record?
**A.** The value was inactive: 29.1%.

**Q.** With `COc1ccc([C@@H]2Sc3ccccc3N(CCN(C)C)C(=O)[C@@H]2OC(C)=O)cc1` as the molecule, how does the Potency read?
**A.** The Potency was “inactive and inconclusive: 23.1 µM [activator, partial curve, poor fit]”.

**Q.** Which “re-replication activation” value does the source give for `O=C(NC(=S)NC1CCSC1=O)c1cccs1` (centres undefined) here?
**A.** The value was inactive: -1.94%.

**Q.** For `CN(CC(=O)Nc1ccc(SC(F)F)cc1)C1CCCCC1`, which Potency is on record?
**A.** Its Potency is inconclusive: 29.1 µM [activator, single point].

**Q.** With `CCCCN(C(=O)CSc1nnc(-c2ccc(OC)cc2)n1CC)c1c(N)n(Cc2ccccc2)c(=O)[nH]c1=O` as the molecule, how does the “re-replication activation” value read?
**A.** The value was inactive: 5.89%.

**Q.** For `Cn1cc(SCC(=O)Nc2nc3ccccc3s2)c2ccccc21`, which Potency is on record?
**A.** Its Potency is inconclusive: 23.1 µM [activator, single point].

**Q.** With `CCOC(=O)C1CCN(Cc2ccc(OC)c(OCc3ccccc3)c2)CC1` as the molecule, how does the Potency read?
**A.** The Potency was inconclusive: 10.3 µM [activator, partial curve, poor fit].

**Q.** For `COc1cc2nc(N(CCCN(C)C)C(=O)c3ccc(S(=O)(=O)N4CCc5ccccc5C4)cc3)sc2cc1OC`, which Potency is on record?
**A.** The Potency was inconclusive: 20.6 µM [activator, single point].

**Q.** With `COc1cccc(CN(C)C(=O)/C=C/c2ccc(S(=O)(=O)N3CCCCCC3)cc2)c1` as the molecule, how does the “re-replication activation” value read?
**A.** The value was inactive: 3.56%.

**Q.** Which “re-replication activation” value does the source give for `CC(C)N1CCNCC1` here?
**A.** The value was inactive: -3.96%.

**Q.** With `CCOC(=O)N1CCN(C(=O)c2ccc3c(=O)n(Cc4ccc(Cl)cc4)c(=S)[nH]c3c2)CC1` as the molecule, how does the “re-replication activation” value read?
**A.** Its value is inactive: -4.39%.

**Q.** Which Potency does the source give for `NNc1nc(N)c2c(n1)-c1ccccc1CC21CCCC1` here?
**A.** Its Potency is inconclusive: 29.1 µM [activator, single point].

**Q.** With `COCCn1c(SCCCC(=O)c2ccc(Br)cc2)nnc1-c1ccncc1` as the molecule, how does the “re-replication activation” value read?
**A.** The value was inactive: 0.659%.

**Q.** Which “re-replication activation” value does the source give for `Cc1ccccc1-n1c(SC(C)C(N)=O)nnc1-c1cccnc1` (centres undefined) here?
**A.** Its value is inactive: -3.77%.

**Q.** With `CCOc1ccc(Br)cc1CNCCN1CCOCC1` as the molecule, how does the Potency read?
**A.** Its Potency is inconclusive: 29.1 µM [activator, partial curve, poor fit].

**Q.** Which Potency does the source give for `CCOC(=O)N1CCN(C2=C(NS(=O)(=O)c3ccccc3)C(=O)c3ccccc3C2=O)CC1` here?
**A.** Its Potency is inconclusive: 23.1 µM [activator, single point].

**Q.** With `COc1ccc(CNC(=O)CCC(=O)Nc2nnc(CC(C)C)s2)cc1` as the molecule, how does the Potency read?
**A.** Its Potency is active: 2.91 µM.

**Q.** With `Cc1ccc(C(=O)NCC(=O)OCC(=O)NC2CCCCCCC2)cc1` as the molecule, how does the Potency read?
**A.** The Potency was inconclusive: 29.1 µM [activator, single point].

**Q.** With `COCCC(=O)N1CCC(Oc2ccc(C(=O)N(C)CCCC3CCCC3)cc2)CC1` as the molecule, how does the Potency read?
**A.** The Potency was inconclusive: 0.461 µM [activator, full curve, poor fit].

**Q.** Which Potency does the source give for `CCOC(=O)N1CCN(C(=O)c2cn(CC)c3ccc(S(=O)(=O)N4CCOCC4)cc3c2=O)CC1` here?
**A.** The Potency was inconclusive: 0.0058 µM [activator, full curve, poor fit].

**Q.** With `NC(=O)c1cc2c3ccccc3ccn2c1-c1ccccc1` as the molecule, how does the Potency read?
**A.** Its Potency is active: 0.731 µM.

**Q.** Which “re-replication activation” value does the source give for `COc1ccc(NC(=O)CCSc2ccc(C)cc2)cc1` here?
**A.** Its value is inactive: -0.783%.

**Q.** With `Cc1ccc(-c2nc(NCCN(C)C)c3ccccc3n2)cc1` as the molecule, how does the Potency read?
**A.** Its Potency is inconclusive: 23.1 µM [activator, single point].

**Q.** With `O=C(CCC1CCCCC1)Nc1cc(Cl)ccc1N1CCOCC1` as the molecule, how does the Potency read?
**A.** The Potency was inconclusive: 2.91 µM [activator, single point].

**Q.** For `CCOC(=O)C1=C(c2ccccc2)OC(N)=C(C#N)C1C(C)C` (centres undefined), which “re-replication activation” value is on record?
**A.** The value was inactive: -3.99%.

**Q.** Which “re-replication activation” value does the source give for `CC(=O)[C@@H]1[C@@H]2C(=O)N(Cc3ccccc3)C(=O)[C@@H]2C2c3ccccc3C=CN21` (some centres undefined) here?
**A.** The value was inactive: 4.15%.

**Q.** Which Potency does the source give for `Cc1nc2c(C(=O)NCc3ccc4c(c3)OCO4)c[nH]n2c(=O)c1Cc1ccccc1F` here?
**A.** Its Potency is inconclusive: 20.6 µM [activator, single point].

**Q.** Which Potency does the source give for `CCCCCCC(NC(=O)Cc1ccc2ccccc2c1)C(=O)O` (centres undefined) here?
**A.** The Potency was inconclusive: 6.51 µM [activator, single point].
